# Test results: patent publication US20210170035A1, “METHOD OF TREATING CANCER BY TARGETING MYELOID-DERIVED SUPPRESSOR CELLS” (priority 2016, published 2021)
# At least one compound was matched to its structure with a doubt left.
# Legend:
# TAMs/MDSCs [1] = assay: Nitric oxide assay (Greiss reagent) after in vitro TAMs/MDSCs screening; type: cell-based, mouse; conditions: co-culture with drug; absorbance at 548 nm
# Description: (§1) 10 million 4T1 cells in 300 μL PBS were injected into the peritoneal cavity. Peritoneal ascites were collected between day 7 and day 10 by peritoneal lavage. […] Cells were counted and ready for flow cytometry staining and in vitro screening.
# (§2) Different concentrations of screening drugs listed in Table 2 were dissolved in the same medium and were added to each well containing 0.5 millions of cells in 300 μL medium. Wells containing 0.5 million cells in 300 μL medium without addition of drugs were kept as untreated control. Three extra wells were charged with 300 μL medium without cells and drugs to be kept as background control. […] At the end of incubation, supernatant was collected for IL-10 ELISA and nitric oxide assay. Cells were washed twice with 300 μL PBS, and were then ready for the arginase assay.
# Nitric oxide production was measured with Greiss reagent as reported in Je-In Youn, Srinivas Nagaraj, Michelle Collazo, and Dmitry I. Gabrilovich, Subsets of Myeloid-Derived Suppressor Cells in Tumor Bearing Mice′, J Immunol. […] The reaction solution was kept in the dark at room temperature for 30 min prior to a plate reader measurement. The absorbance at 548 nm is correlated to concentration of nitric oxide produced by TAMs/MDSCs. […]
# TAMs/MDSCs [2] = assay: Arginase assay after in vitro TAMs/MDSCs screening; type: cell-based, mouse; conditions: co-culture with drug; absorbance at 520 nm
# Description: as §1, §2
# Briefly, after in vitro incubation of isolated TAMs/MDSCs with different drugs in 96 well plates, cells were washed twice with 300 μL PBS. […] Subsequently, 50 μL of the lysate solutions were transferred to a new V-shape 96 well plate. 50 μL of arginase activation solution (10 mM MnCl2/50 mM Tris.Cl (pH 7.5)) were added into the cell lysate. The enzyme was activated by heating for 10 min at 56° C. […] After incubation in the dark at room temperature for 10 min, the urea concentration was measured at 520 nm by plate reader.
structure (smiles),measurement,setting,value
COC[C@H]1OC(=O)c2coc3c2[C@@]1(C)C1=C(C3=O)[C@@H]2CCC(=O)[C@@]2(C)C[C@H]1OC(C)=O [wortmannin],nitric oxide production by TAMs/MDSCs in vitro,TAMs/MDSCs [1],efficiently decrease nitric oxide production
same,arginase production by TAMs/MDSCs in vitro,TAMs/MDSCs [2],efficiently decrease arginase production
